Assay results as given in the supplement of paper PMC6078165.
The reference is the same well before dosing, and untreated signal decays as well.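 Fibroblast labels name human fibroblasts: mostly primary ones from tissues such as uterus (C12385, HUF), lung (H6013), bone (Hs27A), adrenal (HADF) and skin (WS1), plus mammary HMF and breast cancer-associated Hs343T. The cancer cells are basal-like or mesenchymal-like triple-negative breast cancer lines. The paper calls a changed response a hit when it shifts by more than 3x the replicate standard deviation. The tissue of the other fibroblasts is not given here.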

System: Hs578T
Assay: relative JC-1 red fluorescence (viability) vs pre-drug, coculture with fibroblast (fraction); higher = more viable cancer cells
Description: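 JC-1 labelled TNBC cells cocultured 1:1 (1,500 cells each) with CellTrace Violet stained primary or stromal fibroblasts in 384-well plates in FluoroBrite medium, treated with one of 42 anticancer drugs at 0.1, 1, 10 or 100 uM. JC-1 red fluorescence (mitochondrial integrity in cancer cells only) was read by plate reader every 8 h for 72 h. Values are normalised to each well's pre-drug value. The stock of one drug was tenfold lower, so its dose labels may be too high.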

CN(Cc1cnc2nc(N)nc(N)c2n1)c1ccc(C(=O)N[C@@H](CCC(=O)O)C(=O)O)cc1 [Methotrexate]
relative JC-1 red fluorescence
Details | 8 h | 16 h | 24 h | 32 h | 40 h | 48 h | 56 h | 64 h | 72 h
10 µM | 0.871 | 0.7339 | 0.692 | 0.658 | 0.603 | 0.58 | 0.575 | 0.558 | 0.568
100 µM | 0.886 | 0.79 | 0.739 | 0.69 | 0.626 | 0.58242 | 0.569 | 0.547 | 0.54

relative JC-1 red fluorescence
Details | 8 h | 16 h | 24 h | 32 h | 40 h | 48 h | 56 h | 64 h | 72 h
10 µM, coculture fibroblast: C12385 | 0.861 | 0.733 | 0.685 | 0.586 | 0.527 | 0.493 | 0.464 | 0.453 | 0.44
10 µM, coculture fibroblast: H6013 | 0.9088 | 0.814 | 0.772 | 0.75 | 0.717 | 0.707 | 0.684 | 0.687 | 0.671
10 µM, coculture fibroblast: H6019 | 0.78 | 0.6797 | 0.669 | 0.568 | 0.525 | 0.502 | 0.479 | 0.464 | 0.454
10 µM, coculture fibroblast: H6076 | 0.922 | 0.8001 | 0.762 | 0.744 | 0.699 | 0.704 | 0.686 | 0.697 | 0.705
10 µM, coculture fibroblast: H6231 | 0.931 | 0.847 | 0.74 | 0.698 | 0.613 | 0.577 | 0.515 | 0.4898 | 0.4661
10 µM, coculture fibroblast: HADF | 0.891 | 0.818 | 0.774 | 0.743 | 0.724 | 0.694 | 0.675 | 0.669 | 0.646
10 µM, coculture fibroblast: HCFa | 0.866 | 0.748 | 0.69524 | 0.6556 | 0.595 | 0.579 | 0.54 | 0.537 | 0.51
10 µM, coculture fibroblast: HCPF | 0.927 | 0.8189 | 0.759 | 0.722 | 0.658 | 0.624 | 0.607 | 0.574 | 0.552
10 µM, coculture fibroblast: HHSteC | 0.896 | 0.7875 | 0.725 | 0.673 | 0.609 | 0.583 | 0.552 | 0.536 | 0.5
10 µM, coculture fibroblast: HMF | 0.889 | 0.775 | 0.722 | 0.697 | 0.645 | 0.616 | 0.591 | 0.573 | 0.563
10 µM, coculture fibroblast: HPFa | 0.941 | 0.849 | 0.804 | 0.767 | 0.746 | 0.722 | 0.693 | 0.685 | 0.651
10 µM, coculture fibroblast: HUF | 0.85221 | 0.724 | 0.707 | 0.5967 | 0.536 | 0.4951 | 0.462 | 0.454 | 0.446
10 µM, coculture fibroblast: Hs27A | 0.9072 | 0.8333 | 0.745 | 0.681 | 0.622 | 0.6 | 0.563 | 0.555 | 0.517
10 µM, coculture fibroblast: Hs343T | 0.918 | 0.77 | 0.71941 | 0.6917 | 0.621 | 0.594 | 0.552 | 0.527 | 0.521
10 µM, coculture fibroblast: WS1 | 0.827 | 0.703 | 0.65209 | 0.5722 | 0.507 | 0.483 | 0.453 | 0.438 | 0.43
100 µM, coculture fibroblast: C12385 | 0.842 | 0.7118 | 0.69 | 0.611 | 0.559 | 0.529 | 0.502 | 0.495 | 0.486
100 µM, coculture fibroblast: H6013 | 0.8598 | 0.783 | 0.72 | 0.675 | 0.621 | 0.594 | 0.557 | 0.544 | 0.517
100 µM, coculture fibroblast: H6019 | 0.738 | 0.6524 | 0.614 | 0.515 | 0.469 | 0.442 | 0.416 | 0.403 | 0.385
100 µM, coculture fibroblast: H6076 | 0.943 | 0.842 | 0.764 | 0.723 | 0.65 | 0.617 | 0.587 | 0.564 | 0.551
100 µM, coculture fibroblast: H6231 | 0.879 | 0.76 | 0.702 | 0.675 | 0.6 | 0.577 | 0.5436 | 0.51968 | 0.5137
100 µM, coculture fibroblast: HADF | 0.88 | 0.831 | 0.758 | 0.693 | 0.64 | 0.605 | 0.561 | 0.542 | 0.513
100 µM, coculture fibroblast: HCFa | 0.811 | 0.767 | 0.714 | 0.665 | 0.612 | 0.595 | 0.563 | 0.549 | 0.523
100 µM, coculture fibroblast: HCPF | 0.913 | 0.811 | 0.777 | 0.739 | 0.679 | 0.652 | 0.641 | 0.6 | 0.579
100 µM, coculture fibroblast: HHSteC | 0.843 | 0.791 | 0.75 | 0.725 | 0.698 | 0.671 | 0.656 | 0.642 | 0.616
100 µM, coculture fibroblast: HMF | 0.922 | 0.83 | 0.787 | 0.755 | 0.695 | 0.666 | 0.624 | 0.589 | 0.568
100 µM, coculture fibroblast: HPFa | 0.90671 | 0.8025 | 0.733 | 0.674 | 0.639 | 0.614 | 0.567 | 0.551 | 0.512
100 µM, coculture fibroblast: HUF | 0.854 | 0.753 | 0.734 | 0.6371 | 0.5699 | 0.5382 | 0.50366 | 0.4912 | 0.4798
100 µM, coculture fibroblast: Hs27A | 0.881 | 0.789 | 0.758 | 0.719 | 0.675 | 0.659 | 0.631 | 0.626 | 0.589
100 µM, coculture fibroblast: Hs343T | 0.9157 | 0.791 | 0.748 | 0.715 | 0.642 | 0.598 | 0.562 | 0.532 | 0.509
100 µM, coculture fibroblast: WS1 | 0.7697 | 0.699 | 0.686 | 0.584 | 0.529 | 0.499 | 0.468 | 0.459 | 0.45
